# Test results as given in the supplement of paper PMC11732987, “Enantioselective OTUD7B fragment discovery through chemoproteomics screening and high-throughput optimisation” (Communications Chemistry, 2025).
# By UniProt entry, the sequences of proteins in these tests, tags left out. Where a name states a change or a piece, a line headed by the entry shows the natural chain unless it says otherwise. Residues count along the entry.
# UniProt O00442, 340-366: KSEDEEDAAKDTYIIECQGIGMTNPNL
# UniProt Q9Y508, 7-26: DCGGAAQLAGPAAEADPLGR
# UniProt Q8N122: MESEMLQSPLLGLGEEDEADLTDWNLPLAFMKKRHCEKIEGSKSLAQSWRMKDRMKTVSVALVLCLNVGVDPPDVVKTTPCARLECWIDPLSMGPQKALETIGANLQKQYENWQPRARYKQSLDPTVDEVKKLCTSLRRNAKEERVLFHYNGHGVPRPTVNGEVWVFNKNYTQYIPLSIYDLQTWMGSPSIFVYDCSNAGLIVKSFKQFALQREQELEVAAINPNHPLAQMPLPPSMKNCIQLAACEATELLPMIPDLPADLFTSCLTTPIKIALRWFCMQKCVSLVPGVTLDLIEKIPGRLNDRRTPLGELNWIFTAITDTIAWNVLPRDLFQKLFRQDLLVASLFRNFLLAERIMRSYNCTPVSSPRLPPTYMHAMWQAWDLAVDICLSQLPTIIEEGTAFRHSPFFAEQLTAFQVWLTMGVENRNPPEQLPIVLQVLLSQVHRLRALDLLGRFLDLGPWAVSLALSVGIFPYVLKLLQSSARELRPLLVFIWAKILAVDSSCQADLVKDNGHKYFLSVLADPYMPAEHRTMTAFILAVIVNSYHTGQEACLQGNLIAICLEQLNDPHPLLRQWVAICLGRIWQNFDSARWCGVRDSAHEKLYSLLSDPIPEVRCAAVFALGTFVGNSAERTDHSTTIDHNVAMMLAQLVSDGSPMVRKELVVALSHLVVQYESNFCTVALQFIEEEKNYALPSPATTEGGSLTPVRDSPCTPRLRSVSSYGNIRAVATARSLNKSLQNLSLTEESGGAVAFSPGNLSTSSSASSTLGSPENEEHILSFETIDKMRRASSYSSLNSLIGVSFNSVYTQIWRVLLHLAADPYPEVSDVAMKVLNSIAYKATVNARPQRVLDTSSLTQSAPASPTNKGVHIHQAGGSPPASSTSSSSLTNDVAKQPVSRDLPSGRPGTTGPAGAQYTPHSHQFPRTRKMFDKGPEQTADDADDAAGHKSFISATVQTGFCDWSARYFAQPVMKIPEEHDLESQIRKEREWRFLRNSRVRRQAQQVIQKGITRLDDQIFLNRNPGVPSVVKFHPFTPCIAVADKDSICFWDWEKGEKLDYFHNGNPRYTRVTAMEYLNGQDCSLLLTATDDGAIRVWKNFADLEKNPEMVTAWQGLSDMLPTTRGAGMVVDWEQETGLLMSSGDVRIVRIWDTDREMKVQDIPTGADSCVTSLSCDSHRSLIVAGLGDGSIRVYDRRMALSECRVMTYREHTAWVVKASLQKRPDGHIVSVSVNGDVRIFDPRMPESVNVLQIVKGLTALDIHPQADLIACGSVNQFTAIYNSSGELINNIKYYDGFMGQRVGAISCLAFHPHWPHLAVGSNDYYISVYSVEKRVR
# UniProt Q9BZR6, 39-61: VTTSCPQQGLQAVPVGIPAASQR
# UniProt P23443: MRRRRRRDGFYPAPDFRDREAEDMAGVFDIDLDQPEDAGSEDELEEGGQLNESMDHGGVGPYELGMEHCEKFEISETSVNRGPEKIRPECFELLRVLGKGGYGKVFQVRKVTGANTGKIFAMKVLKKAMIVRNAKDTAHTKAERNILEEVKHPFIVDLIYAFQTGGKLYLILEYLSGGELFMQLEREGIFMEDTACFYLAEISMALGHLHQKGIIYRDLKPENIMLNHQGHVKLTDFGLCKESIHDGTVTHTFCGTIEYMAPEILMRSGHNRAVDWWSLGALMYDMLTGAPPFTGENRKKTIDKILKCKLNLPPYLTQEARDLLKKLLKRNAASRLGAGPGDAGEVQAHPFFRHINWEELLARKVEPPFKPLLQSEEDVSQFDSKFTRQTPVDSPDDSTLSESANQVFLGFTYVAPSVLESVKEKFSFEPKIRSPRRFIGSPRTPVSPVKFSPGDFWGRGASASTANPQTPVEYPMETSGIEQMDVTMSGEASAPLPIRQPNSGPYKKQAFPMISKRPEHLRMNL
# UniProt Q9NZJ4: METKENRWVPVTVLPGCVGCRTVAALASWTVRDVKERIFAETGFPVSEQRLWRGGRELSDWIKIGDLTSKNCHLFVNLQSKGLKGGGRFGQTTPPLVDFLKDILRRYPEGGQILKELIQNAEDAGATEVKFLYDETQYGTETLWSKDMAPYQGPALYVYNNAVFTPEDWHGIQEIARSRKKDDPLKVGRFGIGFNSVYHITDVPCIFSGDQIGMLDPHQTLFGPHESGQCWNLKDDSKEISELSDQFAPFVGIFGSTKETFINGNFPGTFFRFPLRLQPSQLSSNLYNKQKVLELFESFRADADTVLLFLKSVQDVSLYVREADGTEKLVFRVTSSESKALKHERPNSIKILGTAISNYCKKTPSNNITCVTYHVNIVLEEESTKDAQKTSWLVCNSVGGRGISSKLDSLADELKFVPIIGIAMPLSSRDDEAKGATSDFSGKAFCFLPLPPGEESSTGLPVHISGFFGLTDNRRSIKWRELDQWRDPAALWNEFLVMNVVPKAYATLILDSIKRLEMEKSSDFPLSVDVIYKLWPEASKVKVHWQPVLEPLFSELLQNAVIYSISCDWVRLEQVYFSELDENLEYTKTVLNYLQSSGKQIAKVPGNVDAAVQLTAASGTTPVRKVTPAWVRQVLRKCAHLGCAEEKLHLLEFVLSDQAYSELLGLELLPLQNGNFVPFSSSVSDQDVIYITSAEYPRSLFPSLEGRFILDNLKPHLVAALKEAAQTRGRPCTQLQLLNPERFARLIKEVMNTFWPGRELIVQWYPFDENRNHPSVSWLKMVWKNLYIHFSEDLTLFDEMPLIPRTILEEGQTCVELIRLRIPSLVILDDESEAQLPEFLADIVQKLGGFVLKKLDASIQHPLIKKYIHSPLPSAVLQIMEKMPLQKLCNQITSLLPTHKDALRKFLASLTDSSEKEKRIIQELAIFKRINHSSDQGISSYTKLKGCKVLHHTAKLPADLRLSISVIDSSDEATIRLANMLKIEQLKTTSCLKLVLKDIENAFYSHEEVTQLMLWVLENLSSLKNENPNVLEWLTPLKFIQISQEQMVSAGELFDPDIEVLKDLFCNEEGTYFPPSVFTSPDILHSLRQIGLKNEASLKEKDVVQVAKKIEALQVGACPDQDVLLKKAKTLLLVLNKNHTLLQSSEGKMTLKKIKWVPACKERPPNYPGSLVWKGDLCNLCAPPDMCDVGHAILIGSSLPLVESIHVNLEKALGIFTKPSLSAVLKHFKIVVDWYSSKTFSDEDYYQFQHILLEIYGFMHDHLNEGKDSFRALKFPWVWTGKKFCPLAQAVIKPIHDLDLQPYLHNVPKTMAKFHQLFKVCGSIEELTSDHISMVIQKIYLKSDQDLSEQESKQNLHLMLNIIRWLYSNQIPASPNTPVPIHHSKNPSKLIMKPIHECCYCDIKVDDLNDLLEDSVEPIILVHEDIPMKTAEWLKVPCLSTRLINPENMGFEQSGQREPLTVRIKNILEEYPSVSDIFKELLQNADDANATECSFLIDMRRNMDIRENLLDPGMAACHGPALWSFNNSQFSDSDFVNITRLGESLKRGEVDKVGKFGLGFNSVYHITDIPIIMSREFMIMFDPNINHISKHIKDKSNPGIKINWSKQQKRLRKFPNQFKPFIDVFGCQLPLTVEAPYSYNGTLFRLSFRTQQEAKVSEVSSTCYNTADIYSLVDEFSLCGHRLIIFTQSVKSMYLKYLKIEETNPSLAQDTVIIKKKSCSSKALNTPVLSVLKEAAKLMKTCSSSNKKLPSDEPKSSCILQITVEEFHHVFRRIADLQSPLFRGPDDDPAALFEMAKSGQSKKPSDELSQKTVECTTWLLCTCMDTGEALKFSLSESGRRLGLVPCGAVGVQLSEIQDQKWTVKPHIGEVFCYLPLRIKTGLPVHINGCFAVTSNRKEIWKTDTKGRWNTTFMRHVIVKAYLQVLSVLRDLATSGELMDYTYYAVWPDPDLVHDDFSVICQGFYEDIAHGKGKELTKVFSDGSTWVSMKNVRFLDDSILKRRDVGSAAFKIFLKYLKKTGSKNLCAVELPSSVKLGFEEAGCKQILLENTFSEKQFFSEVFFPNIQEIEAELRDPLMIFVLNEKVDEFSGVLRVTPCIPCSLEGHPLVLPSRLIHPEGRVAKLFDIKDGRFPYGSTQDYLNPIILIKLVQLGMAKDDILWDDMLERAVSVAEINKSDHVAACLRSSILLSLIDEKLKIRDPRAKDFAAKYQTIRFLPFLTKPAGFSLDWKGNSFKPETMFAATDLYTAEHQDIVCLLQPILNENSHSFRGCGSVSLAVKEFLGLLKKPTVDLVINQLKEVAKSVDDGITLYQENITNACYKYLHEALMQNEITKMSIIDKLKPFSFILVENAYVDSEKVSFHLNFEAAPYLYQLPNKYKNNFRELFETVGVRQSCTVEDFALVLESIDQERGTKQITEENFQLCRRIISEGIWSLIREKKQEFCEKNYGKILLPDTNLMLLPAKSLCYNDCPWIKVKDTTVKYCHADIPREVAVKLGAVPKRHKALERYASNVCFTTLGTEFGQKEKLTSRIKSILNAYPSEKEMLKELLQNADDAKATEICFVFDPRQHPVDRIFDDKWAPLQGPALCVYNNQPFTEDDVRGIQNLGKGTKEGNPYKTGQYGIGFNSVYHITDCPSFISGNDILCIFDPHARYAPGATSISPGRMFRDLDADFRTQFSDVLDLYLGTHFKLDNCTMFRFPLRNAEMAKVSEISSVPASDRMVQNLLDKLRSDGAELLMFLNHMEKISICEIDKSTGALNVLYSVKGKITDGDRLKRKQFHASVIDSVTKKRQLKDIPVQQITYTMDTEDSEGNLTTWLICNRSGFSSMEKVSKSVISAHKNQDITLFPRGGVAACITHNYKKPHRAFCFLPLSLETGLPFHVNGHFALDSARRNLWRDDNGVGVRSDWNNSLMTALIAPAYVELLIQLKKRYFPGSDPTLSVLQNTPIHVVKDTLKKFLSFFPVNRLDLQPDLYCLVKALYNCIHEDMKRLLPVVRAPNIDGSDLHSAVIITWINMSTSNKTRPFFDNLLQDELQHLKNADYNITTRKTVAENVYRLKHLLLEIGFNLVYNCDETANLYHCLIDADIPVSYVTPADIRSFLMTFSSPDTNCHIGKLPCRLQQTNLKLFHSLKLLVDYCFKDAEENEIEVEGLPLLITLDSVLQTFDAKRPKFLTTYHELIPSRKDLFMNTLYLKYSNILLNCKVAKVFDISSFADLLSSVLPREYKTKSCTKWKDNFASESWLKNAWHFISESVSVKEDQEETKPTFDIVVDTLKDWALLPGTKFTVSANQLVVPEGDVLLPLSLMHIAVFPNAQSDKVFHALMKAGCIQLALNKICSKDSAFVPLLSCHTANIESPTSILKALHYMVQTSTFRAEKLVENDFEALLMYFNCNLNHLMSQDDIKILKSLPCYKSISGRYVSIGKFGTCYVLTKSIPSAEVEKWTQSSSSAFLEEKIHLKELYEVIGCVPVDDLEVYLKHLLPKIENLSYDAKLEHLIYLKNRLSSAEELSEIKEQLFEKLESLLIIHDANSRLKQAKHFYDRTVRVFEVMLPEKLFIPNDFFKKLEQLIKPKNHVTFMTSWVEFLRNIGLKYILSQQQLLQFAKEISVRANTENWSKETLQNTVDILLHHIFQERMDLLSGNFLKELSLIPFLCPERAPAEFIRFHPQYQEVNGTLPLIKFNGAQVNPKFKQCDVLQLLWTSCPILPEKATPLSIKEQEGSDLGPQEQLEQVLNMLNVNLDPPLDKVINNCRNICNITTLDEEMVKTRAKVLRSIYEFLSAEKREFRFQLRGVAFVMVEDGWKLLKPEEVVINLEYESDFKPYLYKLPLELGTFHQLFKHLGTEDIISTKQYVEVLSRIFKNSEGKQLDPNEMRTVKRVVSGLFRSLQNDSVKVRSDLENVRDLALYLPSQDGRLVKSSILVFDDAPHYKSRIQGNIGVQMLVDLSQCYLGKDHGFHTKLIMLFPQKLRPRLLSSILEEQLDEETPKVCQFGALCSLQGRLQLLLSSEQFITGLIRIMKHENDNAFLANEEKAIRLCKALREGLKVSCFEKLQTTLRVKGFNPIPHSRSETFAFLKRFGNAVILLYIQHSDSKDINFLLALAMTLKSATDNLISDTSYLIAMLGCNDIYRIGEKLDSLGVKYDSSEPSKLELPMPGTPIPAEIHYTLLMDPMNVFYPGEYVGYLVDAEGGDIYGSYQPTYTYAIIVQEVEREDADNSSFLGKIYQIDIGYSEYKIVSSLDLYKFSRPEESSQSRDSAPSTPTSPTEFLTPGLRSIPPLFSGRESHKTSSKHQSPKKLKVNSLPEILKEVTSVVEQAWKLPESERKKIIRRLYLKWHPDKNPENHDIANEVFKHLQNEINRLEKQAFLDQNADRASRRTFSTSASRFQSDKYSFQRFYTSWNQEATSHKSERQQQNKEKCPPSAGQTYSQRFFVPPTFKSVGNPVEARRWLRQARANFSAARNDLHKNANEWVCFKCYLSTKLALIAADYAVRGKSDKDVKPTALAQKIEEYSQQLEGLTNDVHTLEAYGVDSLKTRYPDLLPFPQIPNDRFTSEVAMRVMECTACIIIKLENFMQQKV
# Some of the results follow. The data scatter; read single values as rough.
# Experiments:
# [1] = compound: ClCC(=O)N[C@@H]1CCCc2ccccc12; experiment: log2 mean competition ratio of IA-DTB cysteine labelling (DMSO/compound) (log2 ratio); higher = stronger cysteine engagement by compound; conditions: treatment time: 4 h, cell line lysate: HEK293T
# Procedure: (§1)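 IA-DTB competitive cysteine chemoproteomics in HEK293T RIPA lysate. Lysates were treated with compound 29 or 30 at 50 or 200 µM for 4 h, then IA-DTB (500 µM, 1 h), trypsin-digested, NeutrAvidin-enriched and analysed by diaPASEF. Competition ratio = intensity DMSO / intensity compound (n=4 treated, n=64 DMSO); binding: mean log2 CR ≥ 1 and p ≤ 0.05 plus QC filters. Target is the cysteine site.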
# [2] = compound: ClCC(=O)N[C@H]1CCCc2ccccc12; experiment: as above; conditions: treatment time: 4 h, cell line lysate: HEK293T
# Procedure: as §1
Target,log2 mean competition ratio ([1]; 50 µM),log2 mean competition ratio ([1]; 200 µM),log2 mean competition ratio ([2]; 50 µM),log2 mean competition ratio ([2]; 200 µM)
RSL1D1 C211 (UniProt O76021),-0.0285,0.0585,-0.032,0.0414
RPAP3 C155 (UniProt Q9H6T3),-0.0222,-0.258,-0.119,-0.102
RPL34 C49 (UniProt P49207),-0.134,0.316,-0.143,0.375
RPL18A C22 (UniProt Q02543),0.0696,-0.11,0.503,-0.161
ROCK1 C231 (UniProt Q13464),-0.263,0.0851,0.0286,0.036
RNF34 C137 (UniProt Q969K3),-0.779,-0.448,-0.377,-0.341
RRM1 C254 (UniProt P23921),-0.114,-0.488,0.0532,-0.191
RNF213 C2497,0.408,0.052,0.0822,-0.338
RTCA C356 (UniProt O00442),-0.452,0.0032,-0.722,-0.205
RPL23 C125 (UniProt P62829),-0.0518,-0.245,0.107,-0.00306
RRBP1 C1038 (UniProt Q9P2E9),-0.0234,0.0223,-0.562,0.0275
RSAD1 C175 (UniProt Q9HA92),0.175,0.897,0.193,0.519
RNF40 C69 (UniProt O75150),-0.234,0.157,-0.0576,0.172
RPL13A C38 (UniProt P40429),0.434,0.11,0.526,0.108
RRP1B C197 (UniProt Q14684),-0.0554,0.369,-0.333,0.293
RPS17 C35 (UniProt P08708),0.137,-0.291,-0.0951,-0.227
RNF114 C8 (UniProt Q9Y508),-0.208,-0.0552,0.528,0.0885
RTN3 C390 (UniProt O95197),-0.309,-0.215,-0.718,0.0406
RNPC3 C110 (UniProt Q96LT9),-0.246,-0.058,-0.25,-0.0559
RPN1 C545 (UniProt P04843),-0.142,0.0518,-0.131,0.0596
RTCB C485 (UniProt Q9Y3I0),-0.334,-0.238,-0.302,-0.25
ROCK1 C1300 (UniProt Q13464),-0.369,0.25,-0.558,0.149
RNF168 C348 (UniProt Q8IYW5),0.0717,0.0176,0.781,-0.00758

Target,log2 mean competition ratio ([1]; 50 µM),log2 mean competition ratio ([1]; 200 µM),log2 mean competition ratio ([2]; 50 µM),log2 mean competition ratio ([2]; 200 µM)
RNPC3 C420 (UniProt Q96LT9),-0.111,0.482,0.333,0.177
RXRB C247 (UniProt P28702),-0.197,0.0111,-0.285,0.0395
RRP12 C31 (UniProt Q5JTH9),0.206,0.662,0.316,0.529
RPTOR C283 (UniProt Q8N122),0.219,0.142,0.0559,0.139
RPAP2 C358 (UniProt Q8IXW5),0.377,0.21,0.486,0.154
RTN4R C43 (UniProt Q9BZR6),-0.092,0.118,0.216,0.0881
RNF14 C350 (UniProt Q9UBS8),0.402,-0.0498,0.253,0.232
RPS6KB1 C240 (UniProt P23443),0.201,0.407,0.505,0.623
RNF214 C315 (UniProt Q8ND24),0.11,-0.0822,-0.13,-0.0672
ROCK2 C607 (UniProt O75116),-0.155,-0.107,0.00578,-0.101
RPL7A C199 (UniProt P62424),0.0472,-0.214,-0.412,-0.259
RTRAF C69 (UniProt Q9Y224),-0.13,-0.313,-0.0712,-0.133
SACS C732 (UniProt Q9NZJ4),0.119,0.445,0.352,0.109
RNF123 C1180 (UniProt Q5XPI4),-0.169,0.0449,-0.134,0.297
RPL27A C144 (UniProt P46776),-0.0423,-0.12,0.653,0.121
RRAS C70 (UniProt P10301),-0.221,0.0433,-0.484,-0.0496
RRP1B C155 (UniProt Q14684),0.255,-0.476,0.638,-0.581
RUFY3 C385 (UniProt Q7L099),-0.0225,-0.336,-0.407,-0.478
RRBP1 C892 (UniProt Q9P2E9),0.6,-0.0166,0.413,-0.182
SACS C2484 (UniProt Q9NZJ4),0.0348,0.118,-0.187,-0.057
RTKN C122 (UniProt Q9BST9),-0.179,0.108,-0.279,0.151
RNF213 C614,0.129,1.01,0.344,1.34
RPP14 C78 (UniProt O95059),0.169,-0.387,0.51,-0.277

# An excerpt from above with just log2 mean competition ratio ([1]; 200 µM), log2 mean competition ratio ([1]; 50 µM) and log2 mean competition ratio ([2]; 50 µM):
Target	log2 mean competition ratio ([1]; 200 µM)	log2 mean competition ratio ([1]; 50 µM)	log2 mean competition ratio ([2]; 50 µM)
RTN3 C390 (UniProt O95197)	-0.215	-0.309	-0.718
SACS C2484 (UniProt Q9NZJ4)	0.118	0.0348	-0.187
RTKN C122 (UniProt Q9BST9)	0.108	-0.179	-0.279
